Assay results as given in paper PMC4895392.
No constants are given. Whether binding was seen depends on the method and setting. In cells and extracts the contact can be indirect. Some results given as binding are weak or reduced against the parent protein; the word gives no strength.

Sequences of proteins named here, by UniProt entry; tags and fusion partners are left off. Residues count along the entry.
UniProt P35968, residues 20-1356: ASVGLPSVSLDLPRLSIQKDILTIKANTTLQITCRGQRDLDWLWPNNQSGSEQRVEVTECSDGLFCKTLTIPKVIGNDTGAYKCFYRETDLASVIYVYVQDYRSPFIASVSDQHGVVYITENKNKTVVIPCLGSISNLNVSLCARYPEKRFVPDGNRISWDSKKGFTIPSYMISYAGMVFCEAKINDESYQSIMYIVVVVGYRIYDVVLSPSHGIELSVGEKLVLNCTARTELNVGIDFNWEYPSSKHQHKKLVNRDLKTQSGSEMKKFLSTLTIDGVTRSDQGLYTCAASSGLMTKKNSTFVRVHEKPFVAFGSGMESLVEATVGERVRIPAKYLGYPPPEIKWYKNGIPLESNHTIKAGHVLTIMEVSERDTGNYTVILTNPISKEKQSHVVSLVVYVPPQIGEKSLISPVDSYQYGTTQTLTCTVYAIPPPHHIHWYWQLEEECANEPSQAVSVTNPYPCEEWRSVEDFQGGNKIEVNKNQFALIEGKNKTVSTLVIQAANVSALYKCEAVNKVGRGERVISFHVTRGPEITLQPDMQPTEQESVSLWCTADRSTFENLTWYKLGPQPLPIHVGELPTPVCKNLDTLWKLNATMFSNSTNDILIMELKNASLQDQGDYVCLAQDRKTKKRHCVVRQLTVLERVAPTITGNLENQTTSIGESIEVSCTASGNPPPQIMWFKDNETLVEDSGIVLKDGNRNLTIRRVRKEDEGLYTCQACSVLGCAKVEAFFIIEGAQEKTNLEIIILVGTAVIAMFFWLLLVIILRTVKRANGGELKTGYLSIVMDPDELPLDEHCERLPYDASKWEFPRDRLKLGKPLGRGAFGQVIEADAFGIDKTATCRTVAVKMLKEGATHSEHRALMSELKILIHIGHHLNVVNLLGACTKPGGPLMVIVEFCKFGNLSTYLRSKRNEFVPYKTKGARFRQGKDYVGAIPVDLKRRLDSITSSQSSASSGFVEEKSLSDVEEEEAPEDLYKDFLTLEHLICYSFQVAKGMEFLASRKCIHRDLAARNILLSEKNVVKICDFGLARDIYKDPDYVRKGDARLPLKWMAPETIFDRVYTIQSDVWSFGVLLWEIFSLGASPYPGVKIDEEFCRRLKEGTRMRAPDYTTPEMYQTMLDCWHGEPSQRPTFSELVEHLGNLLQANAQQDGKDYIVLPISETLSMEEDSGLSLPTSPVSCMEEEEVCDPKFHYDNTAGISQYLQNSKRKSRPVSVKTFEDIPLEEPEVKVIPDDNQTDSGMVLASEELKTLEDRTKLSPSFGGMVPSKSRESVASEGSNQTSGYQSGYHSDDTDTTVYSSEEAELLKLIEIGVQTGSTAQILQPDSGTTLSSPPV
UniProt Q2M1Z3: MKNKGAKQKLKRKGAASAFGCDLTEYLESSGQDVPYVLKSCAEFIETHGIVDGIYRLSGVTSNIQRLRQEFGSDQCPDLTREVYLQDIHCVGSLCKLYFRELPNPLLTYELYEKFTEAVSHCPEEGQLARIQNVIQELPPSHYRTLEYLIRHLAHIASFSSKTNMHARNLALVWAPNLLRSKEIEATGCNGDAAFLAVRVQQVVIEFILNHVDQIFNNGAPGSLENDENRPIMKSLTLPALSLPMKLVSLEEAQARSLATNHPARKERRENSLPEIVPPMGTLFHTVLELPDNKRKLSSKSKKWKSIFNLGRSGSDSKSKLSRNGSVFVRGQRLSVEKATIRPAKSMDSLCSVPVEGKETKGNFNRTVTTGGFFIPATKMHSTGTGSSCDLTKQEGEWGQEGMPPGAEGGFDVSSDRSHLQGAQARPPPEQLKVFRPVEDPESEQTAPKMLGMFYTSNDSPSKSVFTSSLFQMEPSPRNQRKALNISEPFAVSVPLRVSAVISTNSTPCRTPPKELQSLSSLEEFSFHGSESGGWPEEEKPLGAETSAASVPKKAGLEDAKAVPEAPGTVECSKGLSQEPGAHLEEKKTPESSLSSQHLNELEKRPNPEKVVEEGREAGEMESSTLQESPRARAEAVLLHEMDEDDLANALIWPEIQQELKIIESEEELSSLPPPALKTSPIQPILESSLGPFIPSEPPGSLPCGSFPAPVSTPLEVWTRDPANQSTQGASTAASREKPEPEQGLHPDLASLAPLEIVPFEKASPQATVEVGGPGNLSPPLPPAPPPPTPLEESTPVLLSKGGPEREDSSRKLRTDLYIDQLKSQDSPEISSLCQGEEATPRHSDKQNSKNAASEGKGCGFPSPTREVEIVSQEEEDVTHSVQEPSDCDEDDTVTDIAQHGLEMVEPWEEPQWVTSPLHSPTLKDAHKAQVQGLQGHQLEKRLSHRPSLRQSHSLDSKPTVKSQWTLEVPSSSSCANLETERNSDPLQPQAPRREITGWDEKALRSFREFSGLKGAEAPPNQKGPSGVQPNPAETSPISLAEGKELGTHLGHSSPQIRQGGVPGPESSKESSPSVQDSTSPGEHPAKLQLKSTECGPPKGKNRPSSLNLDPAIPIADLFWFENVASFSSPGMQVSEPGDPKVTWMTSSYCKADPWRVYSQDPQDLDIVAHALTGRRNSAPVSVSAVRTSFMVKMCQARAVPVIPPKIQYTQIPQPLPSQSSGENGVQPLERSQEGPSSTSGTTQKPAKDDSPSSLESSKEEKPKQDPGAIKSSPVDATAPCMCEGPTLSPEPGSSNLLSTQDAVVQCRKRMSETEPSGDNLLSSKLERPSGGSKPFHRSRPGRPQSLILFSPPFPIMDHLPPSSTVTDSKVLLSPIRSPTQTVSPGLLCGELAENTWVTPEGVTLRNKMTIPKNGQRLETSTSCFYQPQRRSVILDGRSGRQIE

Molecular target: VEGF receptor-2 (VEGFR2, Flk-1) (human (endogenous in HUVEC)) (UniProt P35968)
Assay: co-IP; VEGFR2 immunoprecipitated from HUVEC lysates (1 mg) O/N at 4 °C with 4 μg anti-FLK-1 rabbit antibody and Protein A-Sepharose; cells unstimulated or stimulated with VEGF (50 ng/ml) for 10 or 20 min; lysis buffer 50 mM HEPES pH 7.5, 0.5% Nonidet P-40, 0.5% Triton X-100, 150 mM NaCl; immunoblot for CdGAP; rabbit IgG as control

CdGAP (Cdc42 GTPase-activating protein)/ARHGAP31 (from UniProt Q2M1Z3 1-1444)
binding: binds
